# Primary screen of a compound library

Source: ChEMBL document CHEMBL3988442, “University of Dundee, Small-Polar-MMV Screening Library” (2021).

Mtb glucose medium: 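Growth of Mycobacterium tuberculosis over 3 days (7H9 medium with glucose and tyloxapol); the read-out is not stated. Compounds at 50 µM. Higher reads as more growth inhibition (inferred: compounds with an IC50 in retests scored well above the rest). Of about 69,000 compounds tested this way, about 760 (1.1%) reached 50% or more in at least one test.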
Mtb cholesterol medium: 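Growth of Mycobacterium tuberculosis over 4 days (cholesterol / DPPC medium with tyloxapol); the read-out is not stated. Tested at 50 µM. Higher reads as more growth inhibition (inferred: compounds with an IC50 in retests scored well above the rest). Of about 69,000 compounds tested this way, about 370 (0.54%) reached 50% or more in at least one test.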

Each number is a percent effect as filed.
The controls that fix the scale are not given in the record; negative values are as filed.
Compounds were drawn at random from those tested, without regard to their results.
Two or more numbers in one place are separate tests of the same structure; such repeats can differ widely.

[H][C@@]12C[C@H](C)O[C@@]1([H])CCN(C(=O)COC)C2 gave Mtb glucose medium: -8.708%; Mtb cholesterol medium: -9.658% & 6.918%. Cn1ncc2c(=O)[nH]c(CN(Cc3ccco3)C3CCCC3)nc21 read Mtb glucose medium: 11.95%; Mtb cholesterol medium: -2.087%. Result for Cc1ncc2c(n1)CN(Cc1nc(-c3ccsc3)oc1C)CC2 was Mtb glucose medium: -18.02%; Mtb cholesterol medium: -13.55%. For O=C(O)C(F)(F)F.[H][C@@]12CN(Cc3csc(C)n3)CCO[C@]1([H])CN(C(=O)CC1CC1)C2 the result was Mtb glucose medium: 8.073%; Mtb cholesterol medium: -2.23%. Result for Cc1cc(C2CCCN2CCCc2nc3ccccc3o2)on1 (stereo not given) was Mtb glucose medium: 15.98%; Mtb cholesterol medium: -9.411%. Result for COc1ccc(NC2CCN(C3CC3)C2=O)cn1 (stereo not given) was Mtb glucose medium: 5.948%; Mtb cholesterol medium: 20.37%. Cc1noc(C)c1CN1CCN(Cc2ccncc2)c2ncccc2C1.O=C(O)C(F)(F)F.O=C(O)C(F)(F)F.O=C(O)C(F)(F)F read Mtb glucose medium: 1.627%; Mtb cholesterol medium: 1.406%.

CS(=O)(=O)NC1CCN(Cc2coc(-c3ccc(Cl)cc3)n2)CC1 gave Mtb glucose medium: 15.44% & 4.527%; Mtb cholesterol medium: 5.214%. With Cc1cc(C(=O)NCC(C)N2CCc3ccccc32)on1 (stereo not given) the screen gave Mtb glucose medium: -3.536%; Mtb cholesterol medium: 8.538%. For CCc1nnc(C(C)N(C)Cc2c(C)nn(-c3ccccc3)c2C)o1 (stereo not given) the result was Mtb glucose medium: 26.05%; Mtb cholesterol medium: 4.434%. Result for COCCCC1CCCCN1S(=O)(=O)c1cccc(C#N)c1 (stereo not given) was Mtb glucose medium: -18.7%; Mtb cholesterol medium: 6.468%. O=C(O)C(F)(F)F.[H][C@]12CCN(Cc3c(C)noc3C)[C@@]1([H])CC[C@@H](COCC)O2 read Mtb glucose medium: -26.04% & -3.966%; Mtb cholesterol medium: -15.14%. With CC(C)CNC(=O)C1=NOC2(CCN(Cc3ccc(C(C)C)cc3)C2)C1 (stereo not given) the screen gave Mtb glucose medium: 38.13%; Mtb cholesterol medium: 45.48%. With O=C(CN1CCCC(c2ccc(C(=O)O)cc2)C1)NC1CC1 (stereo not given) the screen gave Mtb glucose medium: 4.64%; Mtb cholesterol medium: 13.46%.

Cn1nc(C(=O)N2CCCC2)c(F)c1NC(=O)Cc1ccccc1 gave Mtb glucose medium: 4.245% & -7.392%; Mtb cholesterol medium: -6.232%. Nc1ncnc2c1ncn2[C@H]1CCN(Cc2ccsc2)CC[C@@H]1O read Mtb glucose medium: 18.93%; Mtb cholesterol medium: -3.077%. Cc1cnn(CC2CCCCN2C(=O)Cc2c(C)noc2Cl)c1 (stereo not given) read Mtb glucose medium: 4.289%; Mtb cholesterol medium: -31.56%. With Cc1cnn(CC(C)NCc2nc(-c3cccnc3)no2)c1 (stereo not given) the screen gave Mtb glucose medium: -5.416% & -9.835%; Mtb cholesterol medium: -3.553%. For O=C(O)C(F)(F)F.O=C(O)C(F)(F)F.[H][C@@]12CCCO[C@]1([H])[C@@H](OCc1csc(C)n1)CN2Cc1ccccn1 the result was Mtb glucose medium: 2.1%; Mtb cholesterol medium: 0.2699%. COc1ccnc(N2CCN(C(=O)c3cccc(C#N)c3)CC2)n1 read Mtb glucose medium: 12.03%; Mtb cholesterol medium: 7.947%. Result for Cc1sc(NC(=O)CCC(=O)O)c(C(N)=O)c1-c1ccc(Cl)cc1Cl was Mtb glucose medium: 28.39%; Mtb cholesterol medium: 14.23%.

For O=C(c1cc2c(s1)CCOC2)N1CCCC1Cn1cccn1 (stereo not given) the result was Mtb glucose medium: -4.205%; Mtb cholesterol medium: -5.875%. Result for Cc1cccc(C)c1OC1CN(C(=O)C2CC(=O)N(C(C)(C)C)C2)C1 (stereo not given) was Mtb glucose medium: -27.82%; Mtb cholesterol medium: -19.09%. CS(=O)(=O)N1CCCCC12CCCN(Cc1nccs1)C2.O=C(O)C(F)(F)F (stereo not given) read Mtb glucose medium: -7.068% & 0.463%; Mtb cholesterol medium: -14.21%. O=C(O)C(F)(F)F.O=C(O)C(F)(F)F.O=C1COC2(CCN(CC3CCOCC3)CC2)CN1Cc1ccccn1 read Mtb glucose medium: 2.769%; Mtb cholesterol medium: -7.338%. CC1CCN(C(=O)CSCCN2CCOCC2)CC1 gave Mtb glucose medium: 5.128%; Mtb cholesterol medium: 6.885%. Result for Cc1[nH]c2ccccc2c1-c1ccnc(NCCN2CCCCC2)n1 was Mtb glucose medium: 40%; Mtb cholesterol medium: -3.448%.

Repeated from the top, 3 entries:

| compound | Mtb glucose medium | Mtb cholesterol medium |
|---|---|---|
| `[H][C@@]12C[C@H](C)O[C@@]1([H])CCN(C(=O)COC)C2` | -8.708 | -9.658 & 6.918 |
| `Cn1ncc2c(=O)[nH]c(CN(Cc3ccco3)C3CCCC3)nc21` | 11.95 | -2.087 |
| `Cc1ncc2c(n1)CN(Cc1nc(-c3ccsc3)oc1C)CC2` | -18.02 | -13.55 |